This is one part of the list.
Key:
Assay in all cases: glycan array binding signal (z-score within array); higher = stronger binding
Conditions in all cases: glycan notation: IUPAC condensed, linker removed
[1] = biological target: Fuc(a1-2)Gal
Outline: (§1)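 Negative Z-scores can be read as non-binding. The Z-score is calculated within each array and then averaged across arrays of one protein sequence at different concentrations or buffers and across linkers. Arrays, 3228 in all, were curated from the Consortium for Functional Glycomics database and kept only where the protein sequence was available.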

[2] = biological target: Fuc(a1-2)Gal(b1-3)GalNAc
Outline: as §1

[3] = biological target: Fuc(a1-2)Gal(b1-3)GalNAc(a1-3)[Fuc(a1-2)]Gal(b1-4)Glc
Outline: as §1

[4] = biological target: Fuc(a1-2)Gal(b1-3)GalNAc(a1-3)[Fuc(a1-2)]Gal(b1-4)GlcNAc
Outline: as §1

[5] = biological target: Fuc(a1-2)Gal(b1-3)GalNAc(b1-3)Gal
Outline: as §1

[6] = biological target: Fuc(a1-2)Gal(b1-3)GalNAc(b1-3)Gal(a1-4)Gal(b1-4)Glc
Outline: as §1

[7] = biological target: Fuc(a1-2)Gal(b1-3)GalNAc(b1-4)[Neu5Ac(a2-3)]Gal(b1-4)Glc
Outline: as §1

[8] = biological target: Fuc(a1-2)Gal(b1-3)GlcNAc
Outline: as §1

[9] = biological target: Fuc(a1-2)Gal(b1-3)GlcNAc(b1-2)Man(a1-3)[Fuc(a1-2)Gal(b1-3)GlcNAc(b1-2)Man(a1-6)]Man(b1-4)GlcNAc(b1-4)GlcNAc
Outline: as §1

[10] = biological target: Fuc(a1-2)Gal(b1-3)GlcNAc(b1-2)Man(a1-3)[Fuc(a1-2)Gal(b1-3)GlcNAc(b1-2)Man(a1-6)]Man(b1-4)GlcNAc(b1-4)[Fuc(a1-6)]GlcNAc
Outline: as §1

[11] = biological target: Fuc(a1-2)Gal(b1-3)GlcNAc(b1-3)Gal(b1-4)Glc
Outline: as §1

[12] = biological target: Fuc(a1-2)Gal(b1-3)GlcNAc(b1-3)GalNAc
Outline: as §1

[13] = biological target: Fuc(a1-2)Gal(b1-3)GlcNAc(b1-3)[Fuc(a1-2)Gal(b1-3)GlcNAc(b1-6)]GalNAc
Outline: as §1

[14] = biological target: Fuc(a1-2)Gal(b1-3)GlcNAc(b1-3)[Gal(b1-4)GlcNAc(b1-6)]Gal(b1-4)Glc
Outline: as §1

[15] = biological target: Fuc(a1-2)Gal(b1-3)GlcNAc(b1-3)[Neu5Ac(a2-6)Gal(b1-4)GlcNAc(b1-6)]Gal(b1-4)Glc
Outline: as §1

[16] = biological target: Fuc(a1-2)Gal(b1-3)GlcNAc6S
Outline: as §1

[17] = biological target: Fuc(a1-2)Gal(b1-3)[Fuc(a1-4)]GlcNAc
Outline: as §1

[18] = biological target: Fuc(a1-2)Gal(b1-3)[Fuc(a1-4)]GlcNAc(b1-2)Man(a1-3)[Fuc(a1-2)Gal(b1-3)[Fuc(a1-4)]GlcNAc(b1-2)Man(a1-3)]Man(b1-4)GlcNAc(b1-4)GlcNAc
Outline: as §1

[19] = biological target: Fuc(a1-2)Gal(b1-3)[Fuc(a1-4)]GlcNAc(b1-2)Man(a1-3)[Fuc(a1-2)Gal(b1-3)[Fuc(a1-4)]GlcNAc(b1-2)Man(a1-6)]Man(b1-4)GlcNAc(b1-4)[Fuc(a1-6)]GlcNAc(b1-4)[Fuc(a1-6)]GlcNAc
Outline: as §1

[20] = biological target: Fuc(a1-2)Gal(b1-3)[Fuc(a1-4)]GlcNAc(b1-3)[Fuc(a1-3)[Gal(b1-4)]GlcNAc(b1-6)]Gal(b1-4)Glc
Outline: as §1

[21] = biological target: Fuc(a1-2)Gal(b1-3)[Fuc(a1-4)]GlcNAc(b1-3)[Gal(b1-4)GlcNAc(b1-6)]Gal(b1-4)Glc
Outline: as §1

[22] = biological target: Fuc(a1-2)Gal(b1-4)Glc
Outline: as §1

[23] = biological target: Fuc(a1-2)Gal(b1-4)Glc6S
Outline: as §1

[24] = biological target: Fuc(a1-2)Gal(b1-4)GlcNAc
Outline: as §1

[25] = biological target: Fuc(a1-2)Gal(b1-4)GlcNAc(b1-2)Man
Outline: as §1

[26] = biological target: Fuc(a1-2)Gal(b1-4)GlcNAc(b1-2)Man(a1-3)[Fuc(a1-2)Gal(b1-4)GlcNAc(b1-2)Man(a1-6)]Man(b1-4)GlcNAc(b1-4)GlcNAc
Outline: as §1

[27] = biological target: Fuc(a1-2)Gal(b1-4)GlcNAc(b1-2)Man(a1-3)[Fuc(a1-2)Gal(b1-4)GlcNAc(b1-2)Man(a1-6)]Man(b1-4)GlcNAc(b1-4)[Fuc(a1-6)]GlcNAc
Outline: as §1

[28] = biological target: Fuc(a1-2)Gal(b1-4)GlcNAc(b1-2)[Fuc(a1-2)Gal(b1-4)GlcNAc(b1-4)]Man(a1-3)[Fuc(a1-2)Gal(b1-4)GlcNAc(b1-2)Man(a1-6)]Man(b1-4)GlcNAc(b1-4)GlcNAc
Outline: as §1

[29] = biological target: Fuc(a1-2)Gal(b1-4)GlcNAc(b1-3)Gal(b1-4)GlcNAc
Outline: as §1

[30] = biological target: Fuc(a1-2)Gal(b1-4)GlcNAc(b1-3)Gal(b1-4)GlcNAc(b1-2)Man(a1-3)[Fuc(a1-2)Gal(b1-4)GlcNAc(b1-3)Gal(b1-4)GlcNAc(b1-2)Man(a1-6)]Man(b1-4)GlcNAc(b1-4)GlcNAc
Outline: as §1

[31] = biological target: Fuc(a1-2)Gal(b1-4)GlcNAc(b1-3)Gal(b1-4)GlcNAc(b1-3)Gal(b1-4)GlcNAc
Outline: as §1

[32] = biological target: Fuc(a1-2)Gal(b1-4)GlcNAc(b1-3)GalNAc
Outline: as §1

[33] = biological target: Fuc(a1-2)Gal(b1-4)GlcNAc(b1-3)[Fuc(a1-2)Gal(b1-4)GlcNAc(b1-6)]GalNAc
Outline: as §1

[34] = biological target: Fuc(a1-2)Gal(b1-4)GlcNAc(b1-3)[Fuc(a1-3)[Gal(b1-4)]GlcNAc(b1-6)]Gal(b1-4)Glc
Outline: as §1

[35] = biological target: Fuc(a1-2)Gal(b1-4)GlcNAc(b1-6)GalNAc
Outline: as §1

[36] = biological target: Fuc(a1-2)Gal(b1-4)GlcNAc6S
Outline: as §1

[37] = biological target: Fuc(a1-2)Gal(b1-4)[Fuc(a1-3)]GlcNAc
Outline: as §1

B1: his-Lectin-24A (Drosophila melanogaster) (protein)
chain: MFRLSVLVLNLLLVSHEFSAGTAKIEIQPLPALCNGYCFPTLKPVMEYVAIHQDKWNTCTEILANEARKDQIQLNIQLDALKADVSNIKASQLSKDEKLDRMEREQFAMHESLETINRYLTVKLDRTKLQLEAIKNTMDYMKAQMDGYFSAINGVQCLQPGFEKIGDRYFYIEEDVELNWLDAQAKCRRMGGHLASIKTKQEFDAIVEKLDDSKSYFLGVNENTKTGDFVSAASGKSCLYHEWGPGEPHHNNDQERCVSILRKLMHVGNCTYEKRFICQYGI
- glycan array binding signal (z-score) [1]: 0.998
- glycan array binding signal (z-score) [2]: 0.264
- glycan array binding signal (z-score) [3]: -0.037
- glycan array binding signal (z-score) [4]: 0.127
- glycan array binding signal (z-score) [5]: -0.77
- glycan array binding signal (z-score) [6]: -0.039
- glycan array binding signal (z-score) [7]: 0.387
- glycan array binding signal (z-score) [8]: 0.448
- glycan array binding signal (z-score) [9]: 1.37
- glycan array binding signal (z-score) [10]: -0.151
- glycan array binding signal (z-score) [11]: -0.167
- glycan array binding signal (z-score) [12]: -0.119
- glycan array binding signal (z-score) [13]: 0.195
- glycan array binding signal (z-score) [14]: -0.536
- glycan array binding signal (z-score) [15]: -0.909
- glycan array binding signal (z-score) [16]: 0.539
- glycan array binding signal (z-score) [17]: -0.536
- glycan array binding signal (z-score) [18]: 0.195
- glycan array binding signal (z-score) [19]: 0.033
- glycan array binding signal (z-score) [20]: 0.614
- glycan array binding signal (z-score) [21]: -0.407
- glycan array binding signal (z-score) [22]: 1.94
- glycan array binding signal (z-score) [23]: -0.493
- glycan array binding signal (z-score) [24]: -0.218
- glycan array binding signal (z-score) [25]: -0.751
- glycan array binding signal (z-score) [26]: -0.423
- glycan array binding signal (z-score) [27]: 0.871
- glycan array binding signal (z-score) [28]: 2.61
- glycan array binding signal (z-score) [29]: -0.369
- glycan array binding signal (z-score) [30]: -0.244
- glycan array binding signal (z-score) [31]: -0.296
- glycan array binding signal (z-score) [32]: -0.522
- glycan array binding signal (z-score) [33]: -0.269
- glycan array binding signal (z-score) [34]: 2.69
- glycan array binding signal (z-score) [35]: -0.302
- glycan array binding signal (z-score) [36]: -0.612
- glycan array binding signal (z-score) [37]: 0.82
